# Primary screen of a compound library

Sequences of proteins named here, by UniProt entry; tags and fusion partners are left off.
UniProt E9BF75, entry or part of it: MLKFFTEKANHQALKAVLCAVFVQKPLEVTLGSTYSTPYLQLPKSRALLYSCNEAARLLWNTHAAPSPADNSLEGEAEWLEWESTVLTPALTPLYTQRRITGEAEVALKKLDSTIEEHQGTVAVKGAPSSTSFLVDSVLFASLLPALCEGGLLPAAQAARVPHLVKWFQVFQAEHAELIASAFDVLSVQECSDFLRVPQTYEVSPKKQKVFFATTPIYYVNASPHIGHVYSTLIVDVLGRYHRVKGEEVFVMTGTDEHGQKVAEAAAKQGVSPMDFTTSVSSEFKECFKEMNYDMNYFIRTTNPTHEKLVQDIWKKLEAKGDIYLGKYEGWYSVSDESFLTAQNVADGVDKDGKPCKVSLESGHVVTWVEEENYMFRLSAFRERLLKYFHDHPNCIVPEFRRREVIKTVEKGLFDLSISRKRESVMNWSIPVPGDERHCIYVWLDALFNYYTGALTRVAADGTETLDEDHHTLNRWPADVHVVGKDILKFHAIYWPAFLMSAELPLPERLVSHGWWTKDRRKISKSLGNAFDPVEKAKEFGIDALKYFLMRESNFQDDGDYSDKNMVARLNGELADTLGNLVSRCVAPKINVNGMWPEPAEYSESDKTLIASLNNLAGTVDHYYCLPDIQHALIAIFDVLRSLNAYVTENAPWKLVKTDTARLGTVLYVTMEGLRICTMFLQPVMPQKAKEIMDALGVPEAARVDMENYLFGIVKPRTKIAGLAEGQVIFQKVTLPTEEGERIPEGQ

From ChEMBL document CHEMBL3988442, “University of Dundee, Small-Polar-MMV Screening Library” (2021).

Mtb heat-shock: 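Assay on Mycobacterium tuberculosis, filed only as a heat shock assay from Cornell; the read-out is not stated. The concentration is filed as 10 mM, unlikely as a test dose, so the dose is not known. Direction is inferred from retests: higher values go with stronger inhibition. Of about 69,000 compounds tested this way, about 930 (1.4%) reached 50% or more in at least one test.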
LdMetRS: 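Primary screen of methionyl-tRNA synthetase; the read-out is not stated. Target: Methionyl-tRNA synthetase (putative), Leishmania donovani (UniProt E9BF75). The test concentration is not given. The values are filed as inhibition. About 68,000 compounds were tested under these conditions; 0.035% (about 24) showed 50% or more at least once.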

All values are in %.
The controls that fix the scale are not given in the record; negative values are as filed.
This is an unselected part of the compounds tested.
A dash means the value is not listed here; it may have been measured.

| SMILES | Mtb heat-shock | LdMetRS |
|---|---|---|
| `O=c1cc(N2CCCC2)cnn1Cc1noc(C2CCCO2)n1` (stereo not shown) | -4.566 | 10.45 |
| `Cc1cc(C)n(CC2CN(CC(=O)NC3(C#N)CCCC3)CCO2)n1` (stereo not shown) | -14.7 | 24.79 |
| `O=C(CCc1nc(-c2ccccn2)no1)N1CCCC1c1ccsc1` (stereo not shown) | -18.08 | 13.24 |
| `CCCS(=O)(=O)N1Cc2ccnn2CC(c2nc(C)no2)C1` (stereo not shown) | - | -0.7299 |
| `CCOc1nnc(CNC2CCCN(c3ccc(C)nn3)C2)s1` (stereo not shown) | 16.75 | 15.03 |
| `c1nc(CCC2CCCN2)cc(N2CCCCCC2)n1` (stereo not shown) | - | 16.67 |
| `Cc1nn(C)c(N(C)C)c1CNCCCN(C)S(C)(=O)=O` | 11.7 | 12.88 |
| `Cc1nnc(CN(C)CCCOc2ccc(Cl)cc2)o1` | 14.58 | 11.33 |
| `CCN1CC2(CC1=O)CN(C(C)=O)CCN(S(C)(=O)=O)C2` (stereo not shown) | 4.754 | 13.04 |
| `CN(C)Cc1n[nH]c2c1CCN(Cc1cccs1)C2.O=C(O)C(F)(F)F.O=C(O)C(F)(F)F` | -15.52 | - |
| `N#Cc1cccnc1NCCNC(=O)N1CCCC(N2CCCC2)C1` (stereo not shown) | 5.947 | 13.59 |
| `O=C(c1ccnnc1)N1CCN2C[C@H](Oc3cccnc3)C[C@H]2C1` | - | 5 |
| `CC(=O)NCCNC(=O)c1cnc(C(C)(C)C)s1` | 11.6 | 9.777 |
| `CN(Cc1ccccc1)CC1(O)CCCN(CC(C)(C)C)C1=O` (stereo not shown) | 2.643 | 9.735 |
| `Cc1csc(CNC(=O)Nc2ccc3c(c2)OCO3)n1` | 6.816 | 18.82 |
| `O=C(O)C(F)(F)F.O=C(O)C(F)(F)F.O=C(O)C(F)(F)F.[H][C@@]12CN(Cc3ccsc3)C[C@]1([H])OCCN2CCN1CCCC1` | -36.64 | - |
| `c1ccc(-c2ccc(C3CNCCO3)nc2)cc1` (stereo not shown) | - | 9.441 |
| `Cc1nnc2n1CCN(C(C(=O)NC1CC1)c1ccc(F)cc1)C2` (stereo not shown) | 11.13 | 16.71 |
| `CC(C)C(C)(O)CNC(=O)Nc1ccccn1` (stereo not shown) | 6.084 | 11.23 |
| `COc1ccccc1CCNC(=O)CN1CCCC1c1noc(C)n1` (stereo not shown) | 3.67 | 18.37 |
| `O=C(O)C(F)(F)F.O=C(O)C(F)(F)F.[H][C@@]12CCCO[C@]1([H])[C@H](N(C)Cc1cccnc1)CN2C(=O)NC1CC1` | -8.172 | - |
| `Cn1cccc1-c1cc(C(=O)N2CCCC2C(F)(F)F)[nH]n1` (stereo not shown) | 19.1 | 5.495 |
| `COc1cc(C(=O)N2CC3(CCNCC3)c3cc(Cl)ccc32)ccn1` | - | 10.58 |
| `O=C1CN(C(=O)c2ccc(F)cc2)CC(O)CN1Cc1cccs1` (stereo not shown) | 62.26 | 5.753 |
| `COc1ccc(CNC(=O)N2CCCC(Nc3ccccc3)C2)cn1` (stereo not shown) | -11.24 | 15.16 |
| `CC1CN(C)c2ccccc2CN1C(=O)c1ccc[nH]1` (stereo not shown) | -18.9 | 7.389 |
| `Cc1cccc(CN2CC[C@H]3OCC[C@@]3(C(=O)N3CCCO3)C2)n1` | - | 10.93 |
| `CC(C)NC(=O)N1C[C@H](OCc2cccnc2)[C@H]2COC[C@H]21` | - | 9.645 |
| `COCc1noc(-c2ccc(N(C)Cc3cn(C)nc3C)nc2)n1` | 24.11 | 14.05 |
| `COC(=O)c1sc(NCc2ccc(N3CCC(O)CC3)c(F)c2)nc1Cl` | -13.84 | 7.519 |
| `CN(C)CC(=O)N1CC2(CCN(Cc3ccccc3)C2)C1` | -26.11 | 9.524 |
| `O=C1CC2(CCSC2)C(=O)N1Cc1coc(-c2ccccc2)n1` (stereo not shown) | -20.52 | 8.527 |
| `CC(=O)Nc1nc(C(=O)NCc2ccc(OC(C)C)nc2)cs1` | 4.095 | 16.91 |
| `Cc1nc(CN2CCCC(N(C)Cc3nc(CC(C)C)no3)C2)no1` (stereo not shown) | 8.857 | 10.65 |
| `CCc1ccc(S(=O)(=O)N2CC3(COC(C)(C)OC3)C2)s1` | -7.54 | 7.914 |
| `CN(C)C(CNC(=O)OCC(F)(F)F)c1ccsc1` (stereo not shown) | -31.81 | 14.63 |
| `CCn1ncc2c1C(COCC1CC1)N(Cc1nccs1)CC2.O=C(O)C(F)(F)F.O=C(O)C(F)(F)F` (stereo not shown) | -2.895 | - |
| `Cc1c(NC(=O)c2ncn[nH]2)cccc1C(=O)NC(C)(C)C` | 9.049 | 10.92 |
| `[H][C@]12CCN(C(=O)c3ccco3)[C@@]1([H])CC[C@@H](COCC1CCOCC1)O2` | -9.625 | - |
| `CCCN1CCN(Cc2cn(CCC(N)=O)c3ccccc23)CC1` | -25.96 | 8.711 |
| `COc1cccc(COCC(O)CN(C)c2ccc(C)cc2C)c1` (stereo not shown) | -34.76 | 10.87 |
| `CC(C)N1CCc2[nH]nc(C(=O)N3CCN(C)CC3)c2C1` | - | 7.778 |
| `O=C(O)c1ccnc(-c2ccnc(NCCc3nc4c(s3)CCC4)n2)c1` | 17.18 | 11.2 |
| `COCCOC1CCN(C(C(=O)O)c2ccc(F)c(Cl)c2)CC1` (stereo not shown) | 6.127 | 19.58 |
| `O=C(O)C(F)(F)F.O=S(=O)(C1CC1)N1CCn2cc(CNc3ccccn3)nc2C1` | -28.94 | - |
| `CCc1nc(C2CCCN2Cc2nnc(CC)o2)no1` (stereo not shown) | 30.21 | 10.65 |
| `Cc1noc(C)c1CCC(=O)N1CCCCC1CNS(C)(=O)=O` (stereo not shown) | -19.85 | 12.93 |
| `CN(C)CCN(Cc1ccccc1)C(=O)C1=NNC(=O)CC1` | 10.53 | 19.94 |
| `Cc1ccc(C(=O)NC2CCN(Cc3nc(C(C)C)no3)CC2)s1` | -16.05 | 13.35 |
| `COCCN(Cc1ccccn1)Cc1sccc1C` | -13.89 | 12.75 |
| `CCCN1CCCn2c(nc(CNC(=O)c3nccn3C)cc2=O)C1` | - | 12.2 |
| `Cc1nc(CN(C)C2CCN(CCc3ccc4c(c3)CCO4)C2)no1` (stereo not shown) | 7.757 | 18.23 |
| `Cn1cc(CN2CCC(F)(F)C3(CCN(c4ncccn4)C3)C2)cn1` (stereo not shown) | - | 4.636 |
| `Cc1cccc(C2CCCN(S(=O)(=O)c3cccnc3)C2)n1` (stereo not shown) | -14.38 | 18.69 |
| `Cn1nccc1CNC(=O)C1CCCCC1` | 5.671 | -8.685 |
| `COc1ccc2cc(NC(=O)CCCNc3ncccn3)cnc2c1` | 12.68 | 7.576 |
| `CC(C)OCCN1CCN(c2ccc(CN(C)C)cn2)CC1` | -11.69 | 4.478 |
| `O=C(CN1CCCS1(=O)=O)Nc1ccc(OC(F)F)cc1` | -14.39 | 3.663 |
| `CN(Cc1ncnn1C)C1CCN(c2sccc2C#N)C1=O` (stereo not shown) | -8.229 | 10.14 |
| `c1ncn(CC2CCCN(Cc3nc(C4CC4)no3)C2)n1` (stereo not shown) | -7.222 | 9.859 |
| `Cc1c(C(=O)N[C@@H]2CC[C@@H](N3CCCC3)[C@@H]2O)[nH]c2ccc(F)cc12` | -1.808 | 4.724 |
| `CC(C)NC(=O)CN(C)CC(=O)/N=c1/cc[nH]n1C(C)C1CC1` (stereo not shown) | -41.27 | 4.811 |
| `Cc1ccc(C)c(C(=O)N2CCOC(CCN(C)C)C2)c1` (stereo not shown) | 0.05098 | 6.091 |
| `CC1(C)CN(C(CNC2=NCCN2)c2ccc(Cl)cc2)CCO1` (stereo not shown) | - | 12.14 |
| `[H][C@]12CCCC(=O)N[C@@]1(C)CCCCN2C(=O)c1cn2c(C)cccc2n1` | -3.046 | - |
| `CN(Cc1ccco1)Cc1ccccc1CNC(=O)c1csnn1` | 1.642 | 16.3 |
| `O=C1OCCN1Cc1cccc(F)c1C(F)(F)F` | 1.221 | 6.863 |
| `COCc1cc(N(C)Cc2cnccn2)nc(C(C)(C)C)n1` | -5.358 | 3.533 |
| `CN(C)C(=O)CN1CC[C@@H]2O[C@@H](COCc3cccnc3)CC[C@@H]21` | - | 21.98 |
| `CCN(CC)C[C@H]1CN2CC[C@H]1C[C@@H]2CNC(=O)c1ccco1` | - | 11.19 |
| `Cc1cc(CN2CCN(Cc3ccc(C#N)cc3F)CC2)no1` | 19.01 | 10 |
| `CCC(CNC(=O)c1ccco1)N1CCc2ccccc2C1` (stereo not shown) | -8.127 | -1.087 |
| `CN1CCC(N2CCCC(C(=O)N3Cc4ccccc4C3)C2)CC1` (stereo not shown) | -10.43 | 12.15 |
| `O=C(CN(CC(O)c1ccc(F)cc1)C1CC1)NCc1cccs1` (stereo not shown) | -23.47 | 12.57 |

9 of the entries, repeated:

| SMILES | Mtb heat-shock | LdMetRS |
|---|---|---|
| `CN(C)CCN(Cc1ccccc1)C(=O)C1=NNC(=O)CC1` | 10.53 | 19.94 |
| `Cc1cccc(CN2CC[C@H]3OCC[C@@]3(C(=O)N3CCCO3)C2)n1` | - | 10.93 |
| `COCc1cc(N(C)Cc2cnccn2)nc(C(C)(C)C)n1` | -5.358 | 3.533 |
| `COCCN(Cc1ccccn1)Cc1sccc1C` | -13.89 | 12.75 |
| `COC(=O)c1sc(NCc2ccc(N3CCC(O)CC3)c(F)c2)nc1Cl` | -13.84 | 7.519 |
| `O=C1CC2(CCSC2)C(=O)N1Cc1coc(-c2ccccc2)n1` (stereo not shown) | -20.52 | 8.527 |
| `Cc1nnc(CN(C)CCCOc2ccc(Cl)cc2)o1` | 14.58 | 11.33 |
| `CCCN1CCN(Cc2cn(CCC(N)=O)c3ccccc23)CC1` | -25.96 | 8.711 |
| `CC1CN(C)c2ccccc2CN1C(=O)c1ccc[nH]1` (stereo not shown) | -18.9 | 7.389 |